{"sequences": {"note": "The chains behind the UniProt entries cited, without tags or fusion partners. Where a name states a change or a piece, a line headed by the entry shows the natural chain unless it says otherwise.", "UniProt P32342": "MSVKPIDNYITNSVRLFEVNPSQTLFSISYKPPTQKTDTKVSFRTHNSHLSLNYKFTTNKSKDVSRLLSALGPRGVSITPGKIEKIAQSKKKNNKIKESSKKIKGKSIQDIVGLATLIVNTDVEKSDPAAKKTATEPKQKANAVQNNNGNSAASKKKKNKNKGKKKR", "UniProt P06634": "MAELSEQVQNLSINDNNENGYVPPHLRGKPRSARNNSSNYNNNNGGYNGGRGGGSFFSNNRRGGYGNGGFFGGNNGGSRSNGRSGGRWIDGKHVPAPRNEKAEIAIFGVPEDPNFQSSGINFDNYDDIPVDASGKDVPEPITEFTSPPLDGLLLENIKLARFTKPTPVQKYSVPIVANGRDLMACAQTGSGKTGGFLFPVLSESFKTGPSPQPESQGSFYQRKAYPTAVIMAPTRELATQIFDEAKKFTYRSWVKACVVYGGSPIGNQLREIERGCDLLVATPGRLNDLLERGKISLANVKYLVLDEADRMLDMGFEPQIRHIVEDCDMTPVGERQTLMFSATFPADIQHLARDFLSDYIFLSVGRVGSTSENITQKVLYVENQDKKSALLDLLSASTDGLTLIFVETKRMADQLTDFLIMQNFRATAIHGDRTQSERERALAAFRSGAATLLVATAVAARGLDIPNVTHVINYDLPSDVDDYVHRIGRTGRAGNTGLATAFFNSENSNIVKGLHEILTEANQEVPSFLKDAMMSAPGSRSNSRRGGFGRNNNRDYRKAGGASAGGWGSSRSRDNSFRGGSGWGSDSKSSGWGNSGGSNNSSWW"}, "source": "paper PMC11206880", "about": "“The RNA Helicase Ded1 from Yeast Is Associated with the Signal Recognition Particle and Is Regulated by SRP21” (Molecules, 2024)", "key": {"[1]": {"biological_target": "SRP21 (UniProt P32342)", "experiment": "EMSA (agarose)", "conditions": "50 nM RNA, large aggregates only partially enter the gel; EMSA: 20 mM Tris-base pH 8.8, 70 mM KOAc, 2 mM MgCl2, 10 ug/uL BSA, 1 mM DTT, with or without 5 mM AMP-PNP or ATP, 0.15 uM RNA, 15 min at 30 C; 1% agarose, 1x TBE, 4 C; recombinant protein; residues 1-167; protein details: C-terminal 6xHis (pET22b); probe letters rebuilt from the primers and the genome; part of a longer molecule"}, "[2]": {"biological_target": "Ded1 (UniProt P06634)", "experiment": "EMSA (agarose)", "conditions": "5- to 10-fold excess Ded1 shifts the majority, 0.15 uM RNA, EMSA: 20 mM Tris-base pH 8.8, 70 mM KOAc, 2 mM MgCl2, 10 ug/uL BSA, 1 mM DTT, with or without 5 mM AMP-PNP or ATP, 15 min at 30 C, 1% agarose, 1x TBE, 4 C, recombinant protein, residues 1-604, protein details: C-terminal 6xHis (pET22b), probe letters rebuilt from the primers and the genome, part of a longer molecule"}}, "note": "For at least one entry, the source does not settle the construct or the ends of the probe.", "data": [{"sequence": "UGUAAUGGCUUUCUGGUGGGAUGGGAUACGUUGAGAAUUCUGGCCGAGGAACAAAUCCUUCCUCGCGGCUAGACACGGAUUGCACGCCCUUUGGGCAAGGGAUAGUUCUCUAUUCCGCACCGUGCCCUGUUGUGGCAACCGUCUUUCCUCCGUCGUAAAUUUGUCCUGGGCAGAGCUGUCUGCCCGGAGGCGGGAGAGUCCGUUCUGAAGUGUCCCGGCUAUAAUAAAUCGAUCUUUGCGGGCAGCCCGUUGGCAGGAGGCGUGAGGAAUCCGUCUCUCUGUCUGGUGCGGCAAGGUAGUUCUGGGUCCUUAGGGGCUCCACCUUCACCGCUGUUAGGGGAGUUUUAUCCAGCGUCAGCAAAGGUGACCCGUGAUGGAGGCGGCCGGGAUAGCACAUAUCAGUCGGAUAAUUGUGCAAGUUGAUCGCUUCGGCGGUUUAAUUUGGCGGUGCCAUCAGGAUUUACUCGCACAUUGUGGCCGUUCCCUCGGGGAUGGAGUGUGUCCUGAACCAUAUUUUU [SCR1 RNA (T7 transcript, 522 nt)]", "values": [{"measurement": "binding result", "setting": "[1]", "result": "binds"}, {"measurement": "binding result", "setting": "[2]", "result": "binds"}]}]}
